Some of the results follow.
tested on: T1, CTL2-GFP (C. trachomatis L2/434/Bu, GFP-expressing); set-up: species or system HeLa; Intracellular C. trachomatis growth in HeLa cells, bulk GFP fluorescence relative to DMSO; details: bulk GFP, single well; 28.5 h, 10 µM; inhibitor
T1 construct: L2/434/Bu, GFP-expressing

Structure (SMILES) | % of control remaining
CC(=O)OC(COc1cccc(Cl)c1)Cn1cnc2cc(C)c(C)cc21 (stereo not shown) [CBK266152] | 161.143%
Cc1ncsc1CCS(=O)(=O)N1CCOCC1c1cccc(F)c1 (stereo not shown) [CBK304254] | 107.203%
CC(C)(C)OC(=O)N1CCC(Oc2cncc(Cl)n2)CC1 [CBK001762] | 100%
Cc1ccc(S(=O)(=O)N=C2NCN(C)CN2)cc1 [CBK261972] | 127.638%
CC(=O)N1c2ccccc2C(C)=CC1C1CCCC(=O)C1 (stereo not shown) [CBK007219] | 124.385%
O=C(Nc1cc(Oc2ccc(Cl)cc2)cc([N+](=O)[O-])c1)c1cnn2c(C(F)F)cc(C3CC3)nc12 [CBK268925] | 167.819%
Cc1cc(C)c(OCC(=O)Nc2cc(-c3nc4ncccc4o3)ccc2C)c(Cl)c1 [CBK072887] | 108.466%
Cc1sc(C(N)=O)cc1[N+](=O)[O-] [CBK066863] | 125.945%
COc1ccc2oc(=O)c(C(=O)Nc3cccc(O)c3)cc2c1 [CBK270070] | 174.336%
CCOc1cccc(CN2CCCCC2c2[nH]ncc2C(N)=O)n1 (stereo not shown) [CBK304750] | 117.742%
CC(N)C1CCCN(S(=O)(=O)c2ccc(OCc3ncnn3C)cc2)C1 (stereo not shown) [CBK304105] | 102.438%
C/C=C/c1ccc(OCCCSc2nc(C)cc(O)n2)c(OC)c1 [CBK267413] | 149.374%
c1ccc(-c2nnc3ccccc3c2N2CCNCC2)cc1 [CBK066888] | 0%
CN1CCC[C@H]1COc1ncccc1OCCO [CBK042185] | 150.549%
Cc1ccccc1OCC(=O)NCc1ccc(C(=O)O)cc1 [CBK287155] | 102.988%
O=C1CCC(=O)N1CCOc1nccnc1OC1CCN(CCc2ccc3ccccc3c2)CC1 [CBK084358] | 116.649%
Cn1cc(C(c2ccc(OCC(=O)O)cc2)c2cn(C)c3ccccc23)c2ccccc21 [CBK266403] | 18.7257%
CCc1nn(Cc2ccccn2)c(=O)c2cc3sc(C)cc3n12 [CBK284113] | 157.578%
CNC(=O)C1(Cc2ccc(-c3ccccc3)cc2)CCN(C(=O)C2CCCCC2)CC1 [CBK285762] | 113.251%
Cc1nnc([C@H]2CCN(Cc3ccc4c(c3)OCO4)C2)o1 [CBK289392] | 121.233%
Cc1cc(=O)oc2cc(Sc3sccc3[N+](=O)[O-])ccc12 [CBK002936] | 133.656%
CNC(=O)c1ccc(-c2cc(C)cs2)nc1N(C)C [CBK106150] | 120.7%
O=C(NC1CCN(Cc2c(F)cccc2Cl)CC1)C1CCN(C(=O)OCc2ccccc2)CC1 [CBK074720] | 77.1222%
FC(F)(F)c1cnc(Oc2ccc(-n3ccnc3)cc2)c(Cl)c1 [CBK161625] | 99.2831%
COc1ccc(Br)cc1S(=O)(=O)Nc1cccc(C(=O)Nc2ccc(F)cc2)c1 [CBK038981] | 102.151%
Cc1csc2c(N3CCSCC3)ncnc12 [CBK009169] | 120.363%

Another view of some results above:
Structure (SMILES)	% of control remaining
Cc1ccc(S(=O)(=O)N=C2NCN(C)CN2)cc1 [CBK261972]	127.638%
CN1CCC[C@H]1COc1ncccc1OCCO [CBK042185]	150.549%
Cc1cc(=O)oc2cc(Sc3sccc3[N+](=O)[O-])ccc12 [CBK002936]	133.656%

Following part:

Structure (SMILES) | % of control remaining
COc1ccc(C)cc1N(C(=O)c1ccccn1)c1nc2ccccc2s1 [CBK297944] | 104.959%
COc1ccc(-c2cncc(N3CCCC3CO)n2)cc1 (stereo not shown) [CBK037223] | 126.481%
CC(C)(C)OC(=O)N1CCC(COc2ccc(-c3ccc(S(C)(=O)=O)cc3)nc2)CC1 [CBK167839] | 120.7%
CCS(=O)(=O)Nc1cc([N+](=O)[O-])ccc1OC [CBK111343] | 58.486%
CCCS(=O)(=O)Nc1nccnc1-c1ccc(Oc2ccccc2)cc1 [CBK050908] | 110.022%
COc1ccc(CNc2nccs2)c(O)c1 [CBK265690] | 135.705%
Cc1ccc(-c2c(N3C(=O)c4cccnc4C3=O)n[nH]c2C)cc1 [CBK288199] | 121.434%
Cc1cc2[nH]c(=O)oc2cc1S(=O)(=O)NCCN1CCCCC1CO (stereo not shown) [CBK307307] | 141.002%
CCn1cc(C2CN(S(=O)(=O)c3ccc(F)c(C)c3)CCO2)cn1 (stereo not shown) [CBK305419] | 103.029%
O=C(C1CCCC1)N1CCCC1c1nc2ccccc2[nH]1 (stereo not shown) [CBK282378] | 159.372%
OCc1nc(-c2cccnc2)co1 [CBK018811] | 101.266%
COc1ccc2cc(Br)ccc2c1CC(=O)Nc1ccccc1[N+](=O)[O-] [CBK268823] | 182.367%
O=S(=O)(Nc1ccccc1)c1ccccc1I [CBK057566] | 88.8689%
Cc1cc(=O)oc2cc(SCc3ccc(Cl)s3)ccc12 [CBK002898] | 98.6348%
CC(C)(C)C(=O)CSc1nnc(-c2ccccc2)n1Cc1ccccc1 [CBK264960] | 120.162%
CCC(NC(=O)c1ccc(C(C)(C)C)[nH]c1=O)c1ccc(OC)cc1 (stereo not shown) [CBK282940] | 113.054%
CC1(C)SC(NCC2CCCCC2)=NC1=O [CBK067808] | 135.486%
CCN(CC)C(=O)CN1CCC(c2ccccc2F)CC1 [CBK283549] | 105.953%
O=C(Cn1nnc2ccccc21)N/N=C\c1cccc(Cl)c1Cl [CBK262931] | 104.212%
COCc1cccc(-c2nccnc2Oc2cccc(OC)c2)c1 [CBK106958] | 93.7504%
CC(NC(=O)c1ccc(-n2ccnc2)c(-n2cccc2)c1)c1ccco1 (stereo not shown) [CBK284808] | 109.704%
CC(C)(C)OC(=O)N1CCC(C2OCc3cc(-c4ccc(S(C)(=O)=O)cn4)ccc3O2)CC1 (stereo not shown) [CBK173326] | 93.1168%
CN1C(=O)COc2ccccc2C/C=C/C[C@H]2NCCC[C@H]21 [CBK292156] | 128.599%
CC(=O)NC(NC(=S)Nc1sc2c(c1C(N)=O)CCCC2)C(Cl)(Cl)Cl (stereo not shown) [CBK261054] | 99.8994%
CCCn1nc(C)c(-c2cncn2CCn2nc(C)c(C)c2C)c1C [CBK281444] | 119.578%
CCc1nsc(N2CCC(Oc3cccnc3N(C)C)C2)n1 (stereo not shown) [CBK304498] | 91.7839%

Another view of 2 compounds above:
Structure (SMILES),% of control remaining
COc1ccc(C)cc1N(C(=O)c1ccccn1)c1nc2ccccc2s1 [CBK297944],104.959%
CCS(=O)(=O)Nc1cc([N+](=O)[O-])ccc1OC [CBK111343],58.486%

From publication PMC12040169 (PLOS Biology, 2025)
